Patent publication US20190160152A1 (OPKO BIOLOGICS LTD., priority 2016, published 2019)
For at least one compound, name, drawing or mass did not settle the structure.

Experiment: ob/ob mouse model Study 2: chronic MOD-6031, OXM, liraglutide pharmacology
Assay type: in vivo, male ob/ob mice
Description: Body weight, food and water intake were recorded daily. […] Body weight, food and water intake were measured daily.

**Q.** Which “body weight reduction over the study” value (0.1 mg/kg bid sc for 32 days) does the source give for `CCCCCCCCCCCCCCCC(=O)N[C@@H](CCC(=O)NCCCC[C@H](NC(=O)[C@H](C)NC(=O)[C@H](C)NC(=O)[C@H](CCC(N)=O)NC(=O)CNC(=O)[C@H](CCC(=O)O)NC(=O)[C@H](CC(C)C)NC(=O)[C@H](Cc1ccc(O)cc1)NC(=O)[C@H](CO)NC(=O)[C@H](CO)NC(=O)[C@@H](NC(=O)[C@H](CC(=O)O)NC(=O)[C@H](CO)NC(=O)[C@@H](NC(=O)[C@H](Cc1ccccc1)NC(=O)[C@@H](NC(=O)CNC(=O)[C@H](CCC(=O)O)NC(=O)[C@H](C)NC(=O)[C@@H](N)Cc1cnc[nH]1)[C@@H](C)O)[C@@H](C)O)C(C)C)C(=O)N[C@@H](CCC(=O)O)C(=O)N[C@@H](Cc1ccccc1)C(=O)N[C@H](C(=O)N[C@@H](C)C(=O)N[C@@H](Cc1c[nH]c2ccccc12)C(=O)N[C@@H](CC(C)C)C(=O)N[C@H](C(=O)N[C@@H](CCCNC(=N)N)C(=O)NCC(=O)N[C@@H](CCCNC(=N)N)C(=O)NCC(=O)O)C(C)C)[C@@H](C)CC)C(=O)O` [Liraglutide, reference compound] here?
**A.** Its value is 8.3%.

**Q.** And the “terminal glucose (in words)” value (study termination, day 33)?
**A.** Its value is “no statistically significant effect”.

**Q.** And the “terminal plasma insulin (in words)” value (study termination, day 33)?
**A.** The value was “no statistically significant effect”.
